PubChem BioAssay AID1224830 | NIAID | 2016

Aim: 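Regulators of TLR4 signalling towards TNF-alpha in macrophage-like cells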 (primary screen)
System: human THP-1 monocytic leukaemia cells, TNF dual-luciferase reporter clone, PMA-differentiated to macrophage-like cells
Knock-down reagent: siRNA pool against human genes, 50 nM
Time to read-out: LPS for 4 h, given about 3 days after siRNA transfection
Challenge: bacterial LPS (TLR4 ligand), 10 ng/ml
Measurement: 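TNF firefly reporter luminescence divided by renilla, normalised to the plate median, then turned into a robust z-score for each replicate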
Scale: TNF reporter robust z-score: higher = stronger TNF reporter response to LPS
Active means: 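Each well counts as active if its z-score is over 2.8 or under -1.5; controls are left without a call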
This is a random part of about 18,000 reagents tested. About 2,900 of them (16%) count as active. 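Calls are made per well; low scores hint the gene aids the LPS response, high scores that it dampens it.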 A number with no mark means an inactive call. Repeated entries: four replicate wells of each siRNA pool.

FBXO21 — TNF reporter robust z-score = -1.74 (active)
FBXO21 — TNF reporter robust z-score = -1.63 (active)
FBXO21 — TNF reporter robust z-score = -1.21
FBXO21 — TNF reporter robust z-score = -1.97 (active)
NT5C3A — TNF reporter robust z-score = -1.9 (active)
NT5C3A — TNF reporter robust z-score = -1.69 (active)
NT5C3A — TNF reporter robust z-score = 0.11
NT5C3A — TNF reporter robust z-score = -0.68
TRIB1 — TNF reporter robust z-score = 0.4
TRIB1 — TNF reporter robust z-score = -0.27
TRIB1 — TNF reporter robust z-score = -0.22
ZNRF3 — TNF reporter robust z-score = -1.08
ZNRF3 — TNF reporter robust z-score = -0.32
ZNRF3 — TNF reporter robust z-score = -0.88
ZNRF3 — TNF reporter robust z-score = 0.64
UCN2 — TNF reporter robust z-score = -0.3
UCN2 — TNF reporter robust z-score = 0.46
UCN2 — TNF reporter robust z-score = -0.07
UCN2 — TNF reporter robust z-score = 0.19
ZNF697 — TNF reporter robust z-score = -0.16
ZNF697 — TNF reporter robust z-score = 0.5
ZNF697 — TNF reporter robust z-score = 0.52

Ordered by “TNF reporter robust z-score” (highest first): some entries from above
NT5C3A — TNF reporter robust z-score = 0.11
NT5C3A — TNF reporter robust z-score = -0.68
NT5C3A — TNF reporter robust z-score = -1.69 (active)
NT5C3A — TNF reporter robust z-score = -1.9 (active)
FBXO21 — TNF reporter robust z-score = -1.97 (active)

More entries follow.
WASH5P — TNF reporter robust z-score = -0.72
WASH5P — TNF reporter robust z-score = 0.02
WASH5P — TNF reporter robust z-score = -1.27
WASH5P — TNF reporter robust z-score = 0.65
TBX1 — TNF reporter robust z-score = -1.16
TBX1 — TNF reporter robust z-score = -0.52
TBX1 — TNF reporter robust z-score = -0.03
TBX1 — TNF reporter robust z-score = 2.26
GLP2R — TNF reporter robust z-score = -0.15
GLP2R — TNF reporter robust z-score = -0.19
GLP2R — TNF reporter robust z-score = -0.85
GLP2R — TNF reporter robust z-score = -0.42
NDUFAF1 — TNF reporter robust z-score = 0.09
NDUFAF1 — TNF reporter robust z-score = -0.15
NDUFAF1 — TNF reporter robust z-score = -0.67
NDUFAF1 — TNF reporter robust z-score = -0.9
SPPL3 — TNF reporter robust z-score = -1.11
SPPL3 — TNF reporter robust z-score = -0.19
SPPL3 — TNF reporter robust z-score = -0.77
SPPL3 — TNF reporter robust z-score = -0.46
CRLF1 — TNF reporter robust z-score = 0.32
CRLF1 — TNF reporter robust z-score = 1.9
CRLF1 — TNF reporter robust z-score = 0.23
CRLF1 — TNF reporter robust z-score = 2.7
CALR — TNF reporter robust z-score = -0.59
CALR — TNF reporter robust z-score = -1.08
CALR — TNF reporter robust z-score = -0.87
CALR — TNF reporter robust z-score = -0.81
